Source: PMC5467912, “Asymmetric regulation of quorum-sensing receptors drives autoinducer-specific gene expression programs in Vibrio cholerae” (PLoS Genetics, 2017)
Values joined by “and” are separate entries in the source; they are usually repeats but may differ in a detail not shown here. Identical values can stand only once. Like-named read-outs stand apart in the source and are kept apart here. This continues a long series; more values of the same kind are listed elsewhere.

Key:
[1] = tested on: QS-controlled luxCDABE operon; format: cell-based
VCA0107-GFP = experiment: Qrr4 regulation of VCA0107-GFP translational fusion, anhydrous tetracycline-inducible qrr4 (S4 Fig); format: cell-based, E. coli
From the text: (§1) We examined whether Qrr regulation of CqsS is direct or indirect using a CqsS-mKATE2 translational fusion in E. coli expressing inducible qrr4. We reasoned that, if CqsS production is controlled by Qrr4, repression of CqsS-mKATE2 should occur when Qrr4 is induced. We verified that our system works by showing that inducible Qrr4 is capable of repressing a previously-identified direct target, VCA0107-GFP [24]. However, no repression of CqsS-mKATE2 occurred following induction of Qrr4 (S4 Fig).
(§2) To assay qrr4 regulation of cqsS, the relative fluorescence of translational fusions (VCA0107B-GFP and CqsS-mKATE2) was measured in E. coli BWR1. E. coli carrying one of these plasmids also contained either an empty plasmid (pZA31) or pZA31 carrying anhydrous tetracycline-inducible qrr4. Qrr4-mediated repression of CqsS-mKATE2 was assessed. VCA0107-GFP is a known Qrr4-repressed target and was used as a positive control to show the system was functional. Overnight cultures were diluted 1:50 into fresh medium and aliquotted in triplicate into 96 well plates. […] OD600 and fluorescence were assessed using an Envision 2103 Multilabel Reader (Perkin Elmer).
(§3) Supplementary file pgen.1006826.s008.tiff: S4 Fig Qrr4 indirectly regulates cqsS. Fluorescence from plasmid-encoded VCA0107-GFP (circles) and CqsS-mKATE2 (squares) was measured in E. coli. Either an empty vector (pZA31-lucNB, black) or pZA31-lucNB carrying tetracycline-inducible qrr4 (pYS245, red) was present in each strain. VCA0107 encodes a type VI secretion system component that is regulated by Qrr4. Data represent two experiments conducted in triplicate. Error bars represent standard errors of the mean. (TIFF) Click here for additional data file.

CqsS-mKATE2 = experiment: Qrr4 regulation of CqsS-mKATE2 translational fusion, anhydrous tetracycline-inducible qrr4 (S4 Fig); format: cell-based, E. coli
From the text: as §1, §2, §3

## CCCCCCCCCC(=O)[C@@H](O)CC [CAI-1, (S)-3-hydroxytridecan-4-one]
[1]; LuxS-CqsA- +CAI-1 5 μM, OD600 1.451
  Light production: 3246037000 RLU
[1]; LuxS-CqsA- +CAI-1 5 μM, OD600 1.711
  Light production: 39158390000 RLU
[1]; LuxS-CqsA- +CAI-1 5 μM, OD600 2.015
  Light production: 53101740000 RLU
[1]; LuxS-CqsA-, AI-2 1 μM, CAI-1 5 μM, OD600 0.005
  Light production: 108432 RLU

## Cc1c2c(c(O)c3c(O)cccc13)C(=O)[C@]1(O)C(=O)C(C(N)=O)=C(O)[C@@H](N(C)C)[C@@H]1C2 [aTc]
VCA0107-GFP; pVC107 Qrr4, aTc 0.0976562 ng/ml
  Relative reporter signal, single replicates: 0.9613 and 1.012 and 1.026 and 0.9977 and 1.0006 and 1.002
VCA0107-GFP; pVC107 Qrr4, aTc 0.195312 ng/ml
  Relative reporter signal, single replicates: 1.0024 and 0.9188 and 0.8807 and 1.002 and 1.013 and 1.06
VCA0107-GFP; pVC107 Qrr4, aTc 0.390625 ng/ml
  Relative reporter signal, single replicates: 1.03 and 1.023 and 1.039 and 1.065 and 1.021 and 1.045
VCA0107-GFP; pVC107 Qrr4, aTc 0.78125 ng/ml
  Relative reporter signal, single replicates: 0.9926 and 1.068 and 1.059 and 1.057 and 1.043 and 1.106
VCA0107-GFP; pVC107 vector, aTc 0.0976562 ng/ml
  Relative reporter signal, single replicates: 0.9758 and 1 and 1.022 and 0.9773 and 1.005 and 1.019
VCA0107-GFP; pVC107 vector, aTc 0.195312 ng/ml
  Relative reporter signal, single replicates: 1.4128 and 0.8809 and 0.9699 and 1.012 and 1.135 and 1.031
VCA0107-GFP; pVC107 vector, aTc 0.390625 ng/ml
  Relative reporter signal, single replicates: 1.5695 and 0.9939 and 0.9892 and 1.006 and 1.039 and 1.108
VCA0107-GFP; pVC107 vector, aTc 0.78125 ng/ml
  Relative reporter signal, single replicates: 1.141 and 1.081
CqsS-mKATE2; pCqsS Qrr4, aTc 0.0976562 ng/ml
  Relative reporter signal, single replicates: 1.002 and 0.9544 and 1.043 and 0.9944 and 1.027 and 0.9789 and 0.936 and 0.9952 and 1.069
CqsS-mKATE2; pCqsS Qrr4, aTc 0.195312 ng/ml
  Relative reporter signal, single replicates: 1.086 and 1.038 and 0.9407 and 1.155 and 1.153 and 1.027 and 0.9251 and 0.879 and 0.9441
CqsS-mKATE2; pCqsS Qrr4, aTc 0.390625 ng/ml
  Relative reporter signal, single replicates: 1.032 and 1.045 and 1.22 and 1.012 and 1.144 and 1.091 and 0.946 and 0.9769 and 0.9113
CqsS-mKATE2; pCqsS Qrr4, aTc 0.78125 ng/ml
  Relative reporter signal, single replicates: 1.064 and 1.133 and 1.188 and 1.111 and 1.121 and 0.9345 and 0.8987 and 1.005 and 0.9315
CqsS-mKATE2; pCqsS Qrr4, aTc 1.5625 ng/ml
  Relative reporter signal, single replicates: 1.213 and 1.0656 and 1.1995 and 0.9438 and 1.051 and 0.9457 and 1.024 and 1.087 and 1.0937
CqsS-mKATE2; pCqsS Qrr4, aTc 3.125 ng/ml
  Relative reporter signal, single replicates: 1.02 and 0.9773 and 1.076 and 1.059 and 1.1
CqsS-mKATE2; pCqsS vector, aTc 0.0976562 ng/ml
  Relative reporter signal, single replicates: 0.9752 and 1.006 and 1.018 and 1.013 and 0.9989 and 0.988
CqsS-mKATE2; pCqsS vector, aTc 0.195312 ng/ml
  Relative reporter signal, single replicates: 0.9701 and 1.016 and 1.12 and 0.9675 and 0.9215 and 0.852
CqsS-mKATE2; pCqsS vector, aTc 0.390625 ng/ml
  Relative reporter signal, single replicates: 1.111 and 1.086 and 1.064 and 1.002 and 0.9378 and 0.9418
CqsS-mKATE2; pCqsS vector, aTc 0.78125 ng/ml
  Relative reporter signal, single replicates: 0.9001 and 0.9821 and 1.036 and 0.9415 and 0.9034 and 0.902
CqsS-mKATE2; pCqsS vector, aTc 1.5625 ng/ml
  Relative reporter signal, single replicates: 1.062 and 0.9934 and 1.045 and 1.019 and 0.9848 and 0.9027
